From the supplement of paper PMC9226226 come the findings set out here.

Structures are written as SMILES. Several values for one entry are separate records, joined by “and”; a condition that tells them apart may be missing. Identical values can stand only once. The list shows a part of the results. Some well-known active drugs show little effect in this data set, so a weak value is uncertain.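 The cells are human mesenchymal stem cells that lack the Werner syndrome gene and age prematurely. Growth was tracked by automated live-cell imaging in three biological repeats, and the twenty drugs that most raised growth over vehicle were taken forward, with no fixed cutoff stated.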 Peptide text beside a SMILES is read from it.

The assay deals with Werner syndrome hMSCs (WRN-/-). In words: relative cell density (fold change vs vehicle control); higher = more proliferation (geroprotective). The settings on record: concentration (umol/L): 1, 6 days.

For the compound `Cc1ccccc1C(OCCN(C)C)c1ccccc1` (stereo not drawn), the relative cell density (vehicle: DMSO) is 1.03.
Under “vehicle: DMSO”, `CNCc1cc(-c2ccccc2F)n(S(=O)(=O)c2cccnc2)c1` had a relative cell density of 1.02.
As to `NCCCC(N)(C(=O)O)C(F)F` (stereo not drawn), the relative cell density (vehicle: Water) came to 1.38.
On to `O=C1CCc2ccc(OCCCCN3CCN(c4cccc(Cl)c4Cl)CC3)cc2N1`, for which the relative cell density (vehicle: DMSO) turned out to be 1.26.
The same measure, in the same setting: then `CN(C)CCOC(c1ccc(Cl)cc1)c1ccccn1` (stereo not drawn), with 0.0301.
As to `CN(C)CCc1c[nH]c2ccc(CS(=O)(=O)N3CCCC3)cc12`, the relative cell density (vehicle: DMSO) is 1.09.
Where the note is “vehicle: DMSO”, `CN1CCN2c3ccccc3Cc3ccccc3C2C1` (stereo not drawn) returned a relative cell density of 1.07.
Same read-out and setting: then `CCCCCCCCOc1ccccc1C(=O)Nc1ccc(C(=O)OCC[N+](C)(CC)CC)cc1`, with 1.17; and `CCCCc1ncc(/C=C(\Cc2cccs2)C(=O)O)n1Cc1ccc(C(=O)O)cc1`, with 1.24; and `O=C(O)CCC(=O)c1ccc(-c2ccccc2)cc1`, with 1.2.
Same read-out and setting: then `O=C1c2c(O)ccc(O)c2C(=O)c2c(NCCNCCO)ccc(NCCNCCO)c21`, with 0.0902; and `CCOC(=O)C1=C(C)NC(C)=C(C(=O)OC)C1c1cccc(Cl)c1Cl` (stereo not drawn), with 1.4.
On to `C[C@H](CCC(=O)O)[C@H]1CC[C@H]2[C@@H]3C(=O)C[C@@H]4CC(=O)CC[C@]4(C)[C@H]3CC(=O)[C@]12C`, for which the relative cell density (vehicle: DMSO) stood at 1.32.
On the same count and under the same terms, the figure for `COC(=O)/C=C/C(=O)OC` is 1.05; for `O=C(NC(Cc1cc(=O)[nH]c2ccccc12)C(=O)O)c1ccc(Cl)cc1` (stereo not drawn) it is 1.11.
The compound `CCOC(CN1CCN(CC(C)C(=O)c2ccccc2)CC1)c1ccccc1` (stereo not drawn) gave a relative cell density (vehicle: Water) of 0.715.
Where the note is “vehicle: DMSO”, `OCC(CO)N[C@H]1C[C@](O)(CO)[C@@H](O)[C@H](O)[C@H]1O` registered a relative cell density of 1.08.
The same measure, in the same setting: the figure for `CCCCC(=O)N(Cc1ccc(-c2ccccc2-c2nnn[nH]2)cc1)[C@H](C(=O)O)C(C)C` is 1.33; for `COc1cc(Nc2ncc3c(n2)-c2ccc(Cl)cc2C(c2c(F)cccc2OC)=NC3)ccc1C(=O)O` it is 0.525.
Regarding `Cc1ccc(Nc2nccc(N(C)c3ccc4c(C)n(C)nc4c3)n2)cc1S(N)(=O)=O`, for the setting “vehicle: DMSO”, the relative cell density was 0.974 and 1.24.
Same read-out and setting: then `CCOC(N)=O`, with 1.23.
On the same count and under the same terms, the figure for `O=C1c2cccc(O)c2C(=O)c2c(O)cccc21` is 1.4; for `Cc1c(C(=O)Nc2ccc(N3C[C@@H](C)O[C@@H](C)C3)nc2)cccc1-c1ccc(OC(F)(F)F)cc1` it is 1.16.
On the same count and under the same terms, then `O=C1O[C@H]([C@@H](O)CO)C(O)=C1O`, with 0.988.
With `Clc1ccc(C(c2ccccc2Cl)C(Cl)Cl)cc1` (stereo not drawn), the relative cell density (vehicle: DMSO) is 1.18.
The same measure, in the same setting: the figure for `Cc1cccc(C)c1OCC(=O)N[C@@H](Cc1ccccc1)[C@@H](O)C[C@H](Cc1ccccc1)NC(=O)[C@H](C(C)C)N1CCCNC1=O` is 1.31.
Same read-out and setting: the figure for `O=C(O)c1ccccc1Nc1cccc(C(F)(F)F)c1` is 1.06.
Still for that read-out and setting: then `O=C1Nc2ccc(Cl)cc2[C@@](C#CC2CC2)(C(F)(F)F)O1`, with 1.25; and `Nc1ccc(C(=O)O)c(O)c1`, with 1.18; and `CCCCN1CCCC[C@H]1C(=O)Nc1c(C)cccc1C`, with 1.04.
Regarding `Cc1cn(-c2cc(NC(=O)c3ccc(C)c(Nc4nccc(-c5cnccn5)n4)c3)cc(C(F)(F)F)c2)cn1`, the relative cell density (vehicle: DMSO) is 1.06.
`CC(C)[C@H](O)C(=O)N[C@@H](C)C(=O)N[C@@H]1C(=O)N(C)CCc2ccccc21` displayed a relative cell density (vehicle: DMSO) of 0.973.
For the setting “vehicle: DMSO”, `CCC(=O)O[C@]1(C(=O)SCF)[C@H](C)C[C@H]2[C@@H]3C[C@H](F)C4=CC(=O)C=C[C@]4(C)[C@@]3(F)[C@@H](O)C[C@@]21C` registered a relative cell density of 1.33.
Still for that read-out and setting: the figure for `CN1CCC(=C2c3ccccc3CCn3c(C=O)cnc32)CC1` is 1.15; for `Nc1ccc(/N=N/c2ccccc2)c(N)n1` it is 0.836; for `CC(NCCc1ccc(O)cc1)C(O)c1ccc(O)cc1` (stereo not drawn) it is 1.31.
Same read-out and setting: then `CCC(C)C1OC2(CCC1C)CC1CC(CC=C(C)C(OC3CC(OC)C(OC4CC(OC)C(O)C(C)O4)C(C)O3)C(C)C=CC=C3COC4C(O)C(C)=CC(C(=O)O1)C34O)O2` (stereo not drawn), with 1.04.
Consider `NC[C@@H]1O[C@H](O[C@H]2[C@@H](O)[C@H](O[C@@H]3[C@@H](O)[C@H](N)C[C@H](N)[C@H]3O[C@H]3O[C@H](CN)[C@@H](O)[C@H](O)[C@H]3N)O[C@@H]2CO)[C@H](N)[C@@H](O)[C@@H]1O`, for which, under “vehicle: Water”, the relative cell density worked out at 0.96.
As for `CCC1(C)CC(=O)NC1=O` (stereo not drawn), under “vehicle: DMSO”, the relative cell density stood at 1.07.
The same measure, in the same setting: the figure for `C[C@H](Nc1ncnc2nc[nH]c12)c1cc2cccc(Cl)c2c(=O)n1-c1ccccc1` is 1.27.
Same read-out and setting: then `O=S(=O)(c1cccc2cnccc12)N1CCCNCC1`, with 0.991.
The same measure, in the same setting: then `O=C(c1ccc(F)c(F)c1Nc1ccc(I)cc1F)N1CC(O)([C@@H]2CCCCN2)C1`, with 0.557; and `CCOC(=O)CC(=O)N1CCSC1COc1ccccc1OC` (stereo not drawn), with 0.851.
`CC(=O)Oc1ccc(C(c2ccc(OC(C)=O)cc2)c2ccccn2)cc1` had a relative cell density (vehicle: DMSO) of 0.21.
Where the note is “vehicle: DMSO”, `CCC(C)(C)C(=O)O[C@H]1C[C@@H](C)C=C2C=C[C@H](C)[C@H](CC[C@@H]3C[C@@H](O)CC(=O)O3)[C@H]21` came in with a relative cell density of 0.404.
Compound `CCNC1(C(N)=O)CCN(c2ncnc3c2nc(-c2ccccc2Cl)n3-c2ccc(Cl)cc2)CC1` displayed a relative cell density (vehicle: Water) of 1.11.
For `CCCc1nn(C)c2c(=O)[nH]c(-c3cc(S(=O)(=O)N4CCN(C)CC4)ccc3OCC)nc12`, the relative cell density was 1.37 and 0.994 (vehicle: DMSO); 0.912 (vehicle: Water).
The compound `O=[N+]([O-])c1ccc(O)c2ncccc12` came in with a relative cell density (vehicle: DMSO) of 1.09.
Same read-out and setting: then `N#CC[C@H](C1CCCC1)n1cc(-c2ncnc3[nH]ccc23)cn1`, with 0.989 and 0.93.
Still for that read-out and setting: then `CN(Cc1cc(Br)cc(Br)c1N)C1CCCCC1`, with 1.37; and `C[C@H](CS)C(=O)N1CCC[C@H]1C(=O)O`, with 1.21.
`Cn1cnc2c(F)c(Nc3ccc(Br)cc3Cl)c(C(=O)NOCCO)cc21`: the relative cell density (vehicle: DMSO) stood at 1.03.
Still for that read-out and setting: the figure for `NCCc1ccc(O)c(O)c1` is 1.1.
The same measure, in the same setting: then `OC[C@@H](O)CN1CCN(c2ccccc2)CC1`, with 0.69; and `N#CC1(c2ccc(NC(=O)c3cccnc3NCc3ccncc3)cc2)CCCC1`, with 0.837.
Still for that read-out and setting: then `Cc1c(Nc2ncccc2C(=O)O)cccc1C(F)(F)F`, with 1.13; and `CC[C@H](c1ccc(O)cc1)[C@@H](CC)c1ccc(O)cc1`, with 0.972; and `COC(=O)N[C@H](C(=O)N1CC2(CC2)C[C@H]1c1nc(-c2ccc3c(c2)C(F)(F)c2cc(-c4ccc5[nH]c([C@@H]6[C@H]7CC[C@H](C7)N6C(=O)[C@@H](NC(=O)OC)C(C)C)nc5c4)ccc2-3)c[nH]1)C(C)C`, with 0.846.
For the compound `COc1ccc(CNc2nc(N3CCC[C@H]3CO)ncc2C(=O)NCc2ncccn2)cc1Cl`, the relative cell density (vehicle: DMSO) is 0.753.
Same read-out and setting: then `CC(=O)OCC(=O)[C@@]1(O)CC[C@H]2[C@@H]3CCC4=CC(=O)C=C[C@]4(C)[C@H]3[C@@H](O)C[C@@]21C`, with 1.12; and `Cn1nnc2c(C(N)=O)ncn2c1=O`, with 1.24.
With `CC(C)(C)CC(C)(C)c1ccc(OCCOCC[N+](C)(C)Cc2ccccc2)cc1`, the relative cell density (vehicle: DMSO) was found to be 1.15.
Still for that read-out and setting: the figure for `CCCCOc1ccc(C(=O)CCN2CCCCC2)cc1` is 0.956.
Same read-out and setting: the figure for `Nc1nc(N)c2nc(-c3ccccc3)c(N)nc2n1` is 0.991; for `C=C1CC[C@H](O)C/C1=C/C=C1\CCC[C@]2(C)[C@@H]([C@H](C)/C=C/[C@H](C)C(C)C)CC[C@@H]12` it is 0.748; for `CC(C)(C)NC(=O)[C@H]1CC[C@H]2[C@@H]3CC[C@H]4NC(=O)C=C[C@]4(C)[C@H]3CC[C@]12C` it is 1.04.
Still for that read-out and setting: then `C=CC[N+]1([C@H]2C[C@H]3[C@@H]4CC[C@H]5C[C@H](O)[C@@H](N6CCOCC6)C[C@]5(C)[C@H]4CC[C@]3(C)[C@H]2OC(C)=O)CCCC1`, with 1.08.
For the compound `CCS(=O)(=O)N1CCN(c2ccc(Nc3ncc(C(N)=O)c(NC4CC4)n3)cc2)CC1`, the relative cell density (vehicle: DMSO) is 0.934.
On the same count and under the same terms, then `CC(C)C(=O)c1c(C(C)C)nn2ccccc12`, with 0.867; and `CC(=O)NC(CC(C)C)C(=O)O` (stereo not drawn), with 1.28; and `CC(C)c1nc(CN(C)C(=O)N[C@@H](CCN2CCOCC2)C(=O)N[C@H](CC[C@H](Cc2ccccc2)NC(=O)OCc2cncs2)Cc2ccccc2)cs1`, with 1.03.
The same measure, in the same setting: then `Cc1cccc(-c2nn3c(c2-c2ccnc4ccc(C(N)=O)cc24)CCC3)n1`, with 0.982.
On the same count and under the same terms, then `CC12CC3CC(C)(C1)CC(N)(C3)C2`, with 1.1.
For `CN1C(C(=O)Nc2ccccn2)=C(O)c2sc(Cl)cc2S1(=O)=O`, the relative cell density (vehicle: Water) turned out to be 0.933.
In turn, `CCC[C@@H]1C[C@@H](C(=O)N[C@@H]([C@H]2O[C@H](SC)[C@H](O)[C@@H](O)[C@H]2O)[C@@H](C)O)N(C)C1` showed a relative cell density (vehicle: DMSO) of 1.05.
On the same count and under the same terms, then `CN1CCCN=C1/C=C/c1cccs1`, with 1.25; and `CO[C@H]1C[C@@H]2CC[C@@H](C)[C@@](O)(O2)C(=O)C(=O)N2CCCC[C@H]2C(=O)O[C@H]([C@H](C)C[C@@H]2CC[C@@H](OC(=O)C(C)(CO)CO)[C@H](OC)C2)CC(=O)[C@H](C)/C=C(\C)[C@@H](O)[C@@H](OC)C(=O)[C@H](C)C[C@H](C)/C=C/C=C/C=C/1C`, with 0.557.
Where the note is “vehicle: DMSO”, `O=c1cc[nH]c(=O)[nH]1` came in with a relative cell density of 1.42.
Same read-out and setting: the figure for `O=C(O)CCCN1CCC(O[C@@H](c2ccc(Cl)cc2)c2ccccn2)CC1` is 1.15.
Still for that read-out and setting: then `C[C@H]1C[C@H]2[C@@H]3CCC4=CC(=O)C=C[C@]4(C)[C@H]3C(=O)C[C@]2(C)[C@@]1(O)C(=O)CO`, with 1.11; and `CCC(=O)OCC(=O)[C@@]1(OC(=O)CC)[C@@H](C)C[C@H]2[C@@H]3CCC4=CC(=O)C=C[C@]4(C)[C@@]3(F)[C@@H](O)C[C@@]21C`, with 1.27.
`NNC(=O)c1ccncc1` showed a relative cell density (vehicle: DMSO) of 1.36.
The same measure, in the same setting: then `CCN1CCCC1CNC(=O)c1cc(S(N)(=O)=O)ccc1OC` (stereo not drawn), with 1.32.
Under “vehicle: DMSO”, `COc1ccc(-c2ccc3cc(C(=O)O)ccc3c2)cc1C12CC3CC(CC(C3)C1)C2` yielded a relative cell density of 0.586.
For `CN1CCN(c2ccc3nc(-c4c(N)c5c(F)cccc5[nH]c4=O)[nH]c3c2)CC1`, the relative cell density (vehicle: DMSO) is 0.384 and 0.369.
On the same count and under the same terms, then `O=c1[nH]c(=O)n([C@H]2C[C@H](O)[C@@H](CO)O2)cc1I`, with 1.26; and `Cc1cccc(N(C)C(=S)Oc2ccc3ccccc3c2)c1`, with 1.18; and `C=CCNC1=C2C[C@@H](C)C[C@H](OC)[C@H](O)[C@@H](C)/C=C(\C)[C@H](OC(N)=O)[C@@H](OC)/C=C\C=C(/C)C(=O)NC(=CC1=O)C2=O`, with 0.345.
`O=C(O)c1cccnc1` displayed a relative cell density (vehicle: DMSO) of 1.05.
Regarding `CCCCc1oc2ccccc2c1C(=O)c1cc(I)c(OCCN(CC)CC)c(I)c1`, the relative cell density (vehicle: DMSO) worked out at 1.54.
With `COC(=O)[C@H](Cc1ccccc1)NC(=O)[C@@H](N)CC(=O)O` (H-Asp-Phe-OMe), the relative cell density (vehicle: DMSO) is 1.09.
Still for that read-out and setting: then `NC(=O)C1CCCc2c1[nH]c1ccc(Cl)cc21` (stereo not drawn), with 1.32.
